The assay can be described thus: qHTS Assay to Find Inhibitors of Chronic Active B-Cell Receptor Signaling. To be noted: ABC-DLBCL IkBa-CBG/CBR reporter, luminescence ratio (green luciferase fused to IkBa over red control in TMD8 lymphoma cells), 4 h. In short, it runs like this: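 Concentration-response series (up to 46 uM) were applied to TMD8 dual-reporter cells for 4 h at 37C with doxycycline. Green/red ratio, after filter-overlap correction, defined %Activity; red signal alone was normalised to basal cells and zero luminescence.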
(In general: qHTS replaces the single test concentration by a dilution series.)

[1] abbreviates: measured here: CBR red luminescence, cell number.
The mark [2] stands for this setting: measured here: IkBa-CBG green luminescence.

Some of the results follow. Shown are side measurements of this screen, not its main read-out; they come without a call. Compounds called inactive in the main read-out are mostly missing here. The note in brackets gives the kind of curve behind each potency; many fits are weak.

In general, AC50 refers to the concentration giving half of the maximal activity seen. As for `COc1ccccc1C(=O)N1CCC(N2CCN(c3ccccc3)CC2)CC1`, the AC50 under setting [1] was 3.16 µM [falling, single point]. The same measure, in the same setting: under `Cc1ccc(N(CC(=O)NC2CCCCC2)C(=O)CNC(=O)c2ccco2)cc1F` stands 14.1 µM [falling, partial curve, poor fit]. The same measure, in the same setting: next, `Cc1ccc(-c2noc(-c3ccno3)n2)cc1`: 3.55 µM [rising, partial curve, poor fit]; `Cc1ccccc1-n1nnnc1Sc1nnnn1-c1ccccc1`: 29.1 µM [falling, single point]; `Cc1cccc(/C(N)=N/OC(=O)CCc2ccccc2)c1`: 3.16 µM [rising, partial curve, poor fit].

In the case of `Cc1cccc(-n2c(CNC(=O)c3ccc(S(=O)(=O)N(C)C)cc3)nnc2SCC(=O)Nc2ccc(F)cc2)c1`, the AC50 under setting [1] is 29.1 µM [falling, single point]. The same measure, in the same setting: next, `COc1cc(C(F)(F)F)nc2ccc(C#CCOC(=O)Nc3ccccc3)cc12`: 7.08 µM [rising, partial curve, poor fit]; `O=C(NCc1ccc(Cl)cc1Cl)C1CCN(S(=O)(=O)c2ccc3c(c2)OCCCO3)CC1`: 0.82 µM [rising, partial curve, poor fit].

Consider `Cc1ccc(-n2c(=O)c(C#N)cc3c(=O)n4cccc(C)c4nc32)cc1`, for which, under setting [1], the AC50 was 29.1 µM [falling, single point]. The same measure, in the same setting: next, `C=CCOC(=O)C1=C(C)OC(N)=C(C#N)C1c1ccc(F)cc1` (stereo unspecified): 22.4 µM [falling, single point]; `O=C(Oc1ccc(-c2cnc3ccccc3n2)cc1)c1ccc(Br)o1`: 0.103 µM [rising, full curve]. For `COc1ccccc1-c1oc2ccccc2c1-c1ccc2c(c1)OCO2`, the AC50 under setting [1] was 5.17 µM [rising, partial curve, poor fit]. Still for that read-out and setting: next, `COc1ccc(CN=C2NN=C(c3ccc(Cl)cc3)CS2)cc1`: 6.31 µM [falling, partial curve, poor fit]. The same measure, in the same setting: under `COc1ccccc1/C=C1\SC(=S)N(CCC(=O)NCCCn2ccnc2)C1=O` stands 3.98 µM [falling, full curve].

With `CCOc1ccc(C(c2c(NC(=O)c3ccccc3)sc(C)c2C)N2CCN(CCO)CC2)cc1` (stereo unspecified), the AC50 under setting [1] is 18.4 µM [falling, partial curve]. Still for that read-out and setting: next, `CC(=O)Oc1ccc(N(C(C)=O)S(=O)(=O)c2cccs2)c2ccccc12`: 29.1 µM [falling, single point]; `COc1cc2c(cc1OC)-c1cc(Nc3ccc(F)cc3)nc(=O)n1CC2`: 2.51 µM [rising, partial curve, poor fit]. On the same count and under the same terms, next, `O=C(O)c1cccc(C(=O)c2cccc(C(=O)O)c2)c1`: 35.5 µM [falling, single point]; `CC(NC(=O)c1ccc([N+](=O)[O-])cc1[N+](=O)[O-])c1ccc(-c2ccccc2)cc1` (stereo unspecified): 1.46 µM [falling, partial curve, poor fit]; `CCOC(=O)Cn1c2[n+](c3ccccc31)CC(O)CS2` (stereo unspecified): 6.51 µM [falling, single point].

For the compound `Cc1nn(C)cc1/C=N/NC(=O)CSc1ccccn1`, the AC50 under setting [1] is 31.6 µM [rising, single point].

On to `CC(NC(=O)C1CCCN1S(=O)(=O)c1cccc2cccnc12)c1ccccc1` (stereo unspecified), for which the AC50 under setting [1] is 10.3 µM [rising, partial curve, poor fit].

Consider `COC(=O)[C@@]1(C)[C@H]2C(=O)N(Cc3ccccc3)C(=O)[C@H]2[C@H]2CN=C(SCc3ccc(C#N)cc3)N21`, for which the AC50 under setting [1] is 20.6 µM [rising, partial curve]. The same measure, in the same setting: under `O=C(Nc1ccc(NC(=O)c2ccccc2Cl)cc1)c1cccnc1` stands 35.5 µM [falling, single point]; under `O=C(Nc1nnc(SCC(=O)N2CCOCC2)s1)C1CC(=O)N(c2ccc(F)cc2)C1` (stereo unspecified), 8.91 µM [falling, partial curve, poor fit]; under `CC(=O)c1ccc(Nc2c(C)n(C)n(-c3ccccc3)c2=O)cc1`, 14.1 µM [falling, partial curve, poor fit]. Take `COc1ccc(C2C(C(=O)Nc3cc(OC)c(OC)c(OC)c3)c3ccccc3C(=O)N2C)cc1` (stereo unspecified): the AC50 is 15.8 µM [rising, partial curve] under setting [1] and 31.6 µM [falling, single point] under setting [2].

Consider `CCCCN(C(=O)c1cccc(S(=O)(=O)N2CCN(C)CC2)c1)c1c(N)n(CCCC)c(=O)[nH]c1=O`, for which the AC50 under setting [1] was 20.6 µM [rising, single point]. Still for that read-out and setting: under `COc1ccc(/C=C2\SC(=S)N(CCC(=O)N3CCCCC3)C2=O)cc1` stands 12.6 µM [falling, partial curve].

Take `CCCC(C(=O)Nc1ccc(S(=O)(=O)N2CCOCC2)cc1)c1ccccc1` (stereo unspecified): under setting [1], the AC50 was 14.6 µM [rising, partial curve].

In the case of `COc1ccc(C(=O)OCc2cc(=O)n3c(C)csc3n2)cc1F`, the AC50 under setting [1] is 2.06 µM [rising, full curve]. In the case of `C/C(=N\NC(=S)NCc1ccccc1)c1ccccc1F`, the AC50 was 35.5 µM [rising, single point] under setting [1] and 31.6 µM [falling, single point] under setting [2]. In the case of `CCOC(=O)CNC(c1ccccc1)c1cc(Br)ccc1NC(=O)OCC` (stereo unspecified), under setting [1], the AC50 is 15.8 µM [falling, single point].

With `COc1cccc(C(C(=O)NC(C)(C)C)N(C(=O)CCC(=O)Nc2cc(C)on2)C(C)C)c1OC` (stereo unspecified), under setting [1], the AC50 was 0.461 µM [falling, partial curve, poor fit]. Still for that read-out and setting: under `O=C(N/N=C/C1CC=CCC1)c1cc(Br)ccc1O` (stereo unspecified) stands 1.03 µM [falling, full curve]; under `CN(CC(=O)Nc1ccc(F)c(F)c1F)C(=O)c1cc(-c2ccncc2)nc2ccccc12`, 13 µM [falling, partial curve, poor fit]. `Cc1nc(NC(=O)c2ccccc2)sc1-c1csc(NCc2ccco2)n1`: the AC50 under setting [1] was 18.4 µM [falling, single point]. As for `COc1ccccc1-n1cnc2cc(NCc3ccccn3)ccc21`, under setting [1], the AC50 was 3.55 µM [falling, partial curve, poor fit].

`N#Cc1c(NC(=O)CSCC(=O)O)sc2c1CCCC2`: the AC50 under setting [1] was 12.6 µM [falling, partial curve, poor fit].

The record behind these values is PubChem BioAssay AID493014 (National Center for Advancing Translational Sciences (NCATS), 2011).
